Test results taken from article PMC10291038.
No constants are given. Whether binding was seen depends on the method and setting. In cells and extracts the contact can be indirect. Some entries that bind do so weakly or less than the wild type. Tags and fused reporters may be left off the sequences shown.

Columns and labels:
[1] = target: T1, PHYTOCHROME KINASE SUBSTRATE 4 with a carboxyl-terminal triple HA tag (PKS4-3xHA, wild type) (Arabidopsis thaliana) (UniProt Q9FYE2); experiment: co-IP; solubilized microsome fraction S3 (extraction buffer with 0.5% Triton X-100) of 3-d-old etiolated seedlings; anti-HA magnetic beads (Miltenyi µMACS HA kit), 90 min at 4 °C; immunoblot with anti-HA and anti-NPH3
T1 sequence: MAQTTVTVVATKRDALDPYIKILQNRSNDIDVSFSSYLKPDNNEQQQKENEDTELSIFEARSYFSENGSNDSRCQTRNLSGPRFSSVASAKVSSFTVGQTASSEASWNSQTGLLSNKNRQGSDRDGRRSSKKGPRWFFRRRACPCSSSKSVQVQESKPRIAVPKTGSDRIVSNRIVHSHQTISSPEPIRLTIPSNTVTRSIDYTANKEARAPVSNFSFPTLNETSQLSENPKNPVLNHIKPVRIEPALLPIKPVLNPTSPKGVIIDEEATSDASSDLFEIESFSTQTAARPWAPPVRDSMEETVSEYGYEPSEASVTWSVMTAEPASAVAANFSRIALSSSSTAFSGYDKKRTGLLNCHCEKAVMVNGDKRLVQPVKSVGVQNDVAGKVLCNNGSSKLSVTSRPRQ

[2] = target: T2, PKS4 C* variant (Cys-143 and Cys-145 of motif C mutated to Ser) with a carboxyl-terminal triple HA tag (Arabidopsis thaliana) (UniProt Q9FYE2); experiment: as above
T2 sequence: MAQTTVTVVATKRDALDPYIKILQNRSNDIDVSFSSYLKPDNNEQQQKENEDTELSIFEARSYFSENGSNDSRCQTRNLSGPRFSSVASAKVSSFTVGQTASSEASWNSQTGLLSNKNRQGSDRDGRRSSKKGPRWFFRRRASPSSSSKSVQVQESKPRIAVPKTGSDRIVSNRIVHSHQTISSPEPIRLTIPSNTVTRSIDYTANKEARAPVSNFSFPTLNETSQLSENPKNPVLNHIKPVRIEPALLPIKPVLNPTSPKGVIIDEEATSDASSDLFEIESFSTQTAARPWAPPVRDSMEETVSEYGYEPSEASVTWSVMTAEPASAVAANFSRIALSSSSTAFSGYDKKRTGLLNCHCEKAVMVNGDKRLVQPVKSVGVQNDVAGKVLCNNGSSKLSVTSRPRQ

binding [1]: binds
binding [2]: binds
B1: NONPHOTOTROPIC HYPOCOTYL 3 (protein, UniProt Q9FMF5 1-746)
chain: MMWESESDGGVGVGGGGGREYGDGVLSSNKHGGVKTDGFELRGQSWFVATDIPSDLLVKIGDMNFHLHKYPLLSRSGKMNRLIYESRDPDPTILILDDLPGGPEAFELASKFCYGVPVDLTATNISGLRCAAEYLEMTEDLEEGNLIFKTEAFLSYVVLSSWRDSILVLKSCEKLSPWAENLQIVRRCSESIAWKACSNPKGIRWAYTGKAPSPSTTNFAGSSPRWNESKDSSFYCSPSRNTNSQPVPPDWWFEDVSILRIDHFVRVITAIKVKGMRFELLGAVIMHYAGKWLPGLIKEGGVAIAPAMSSAIGGGLGLGGDEMSISCGSNSSGGSSGPDWKGGLHMVLSAGKTNGHQDSVACLAGLGISPKDQRMIVESLISIIPPQKDSVTCSFLLRLLRAANMLKVAPALITELEKRVGMQFEQATLQDLLIPGYNNKGETMYDVDLVQRLLEHFLVQEQTEGSSPSRMSPSPSQSMYADIPRGNNNNGGGGGGNNQNAKMRVARLVDSYLTEVARDRNLPLTKFQVLAEALPESARTCDDGLYRAIDSYLKAHPTLSEHERKRLCRVMDCQKLSMDACMHAAQNERLPLRVVVQVLFSEQVKISNALANTSLKESTTLGEAMGTYQPMIPNRKTLIEATPQSFQEGWAAAKKDINTLKFELETVKTKYVELQNEMEVMQRQFEKTGKVKNTPSSSAWTSGWKKLSKLTKMSGQESHDISSGGEQAGVDHPPPRKPRRWRNSIS
